Data published in article PMC7819943, “Rice protein-binding microarrays: a tool to detect cis-acting elements near promoter regions in rice”.
Some of the results follow.

Protein sequences, listed by entry. Tags and fused reporters are not part of them.
UniProt Q0JBA9, entry or part of it: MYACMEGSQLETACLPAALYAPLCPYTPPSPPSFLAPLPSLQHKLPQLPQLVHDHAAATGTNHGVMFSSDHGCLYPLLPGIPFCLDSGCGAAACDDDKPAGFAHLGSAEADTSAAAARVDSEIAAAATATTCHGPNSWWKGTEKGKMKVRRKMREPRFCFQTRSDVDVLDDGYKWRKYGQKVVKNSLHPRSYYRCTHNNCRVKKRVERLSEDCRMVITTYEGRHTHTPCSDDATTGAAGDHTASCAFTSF

Biological target: OsWRKY34 (Oryza sativa, UniProt Q0JBA9 1-250)
Test: protein-binding microarray (RPBM); PBS, 2% BSA, 51.3 ng/ul salmon testes DNA, 50 uM zinc acetate, 200 nM TF, 25 C, 1 h; high values mean tight binding
Conditions: protein: recombinant; tags: N-terminal polyhistidine and DsRed monomer fusion (pET32a); label: CyDye5-dUTP incorporated in the synthesized complementary strand; 3' TTTTT single-stranded linker to array surface; dsDNA, one strand shown
How it was run: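 Transcription factors, each fused N-terminally to a polyhistidine tag and DsRed, were expressed in E. coli BL21-CodonPlus and purified on Ni–NTA. A custom Agilent array was made double-stranded by primer extension with Cy5-dUTP and blocked with 2% BSA. It was incubated with 200 nM protein in PBS, 2% BSA, salmon testes DNA and 50 µM zinc acetate at 25 °C for 1 h, then washed. The binding signal is per-feature fluorescence intensity (arbitrary units) read on an Axon 4000B scanner.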

First: GAGGGAGTGTGGACGTCTGATTTTCTTTTCACTTAATATTCGGAGTCACCTAGTGCAG
Second: CTACAGCGTTAAAATCGATTTTGGGTGGGACCCATGAAAACGGAGTCACCTAGTGCAG
The binding signal of the first is higher: 11600 fluorescence intensity (a.u.) for the first, 9220 fluorescence intensity (a.u.) for the second.

First: GAGGAGAGAGGGGTTGAACTGAAAAGTAGTGTTAATTAATCGGAGTCACCTAGTGCAG
Second: AAGCAGTTTCCTCCTCTCCAAACCAGGCTCATCTCCATCTCGGAGTCACCTAGTGCAG
The binding signal of the first is lower: 8860 fluorescence intensity (a.u.) for the first, 10500 fluorescence intensity (a.u.) for the second.

Going from “AAAGGGCCTGAACCAGTATAATTCTTGTCTTTTGTTTGCTCGGAGTCACCTAGTGCAG” to “CCCATATTCCTCTAATTTCTGTGAGTAATCTATCCATAATCGGAGTCACCTAGTGCAG”, the binding signal rises from 8900 fluorescence intensity (a.u.) to 9470 fluorescence intensity (a.u.).

Compared with “CATCATCCTTTTTTCCAGCCCTATCCACGACCCATCCAACCGGAGTCACCTAGTGCAG”, “GTTTCGGGGAGAGGGGCAGAAGGAAAAGAGACTCCTAGCTCGGAGTCACCTAGTGCAG” is higher in binding signal: 9440 fluorescence intensity (a.u.) for the first, 10300 fluorescence intensity (a.u.) for the second.

Going from “AACATTAACCGCTCAACCACGCCATATATATTACCCTTATCGGAGTCACCTAGTGCAG” to “CCTATATTGGGTTCGTTGGTTTGTAGGGAGGTAGGTAAAACGGAGTCACCTAGTGCAG”, the binding signal rises from 8590 fluorescence intensity (a.u.) to 10700 fluorescence intensity (a.u.).

First: TCACCCATCCACCTCGTCGACTAGTCCCGTCGTCCGTGACCGGAGTCACCTAGTGCAG
Second: CTCTGGTCCAATCAAATGGTCATTCCTGTGTTTTTCCTGTCGGAGTCACCTAGTGCAG
The binding signal of the first is lower: 10200 fluorescence intensity (a.u.) for the first, 12000 fluorescence intensity (a.u.) for the second.

First: GACTCCTCGCAGCTTCCTCTTGTTTTTCTTGGCCGAACCCCGGAGTCACCTAGTGCAG
Second: GTGTTTGAGTTGGATTATACGCTCGTTTGCTTTTGGAAATCGGAGTCACCTAGTGCAG
The binding signal of the first is higher: 14200 fluorescence intensity (a.u.) for the first, 8880 fluorescence intensity (a.u.) for the second.

Going from “CCGCTGGAGCTTCCCGAACATGACCTCGTACGCCGGCACCCGGAGTCACCTAGTGCAG” to “TTGCTCCGTGCTGTCCGCCCTAAACCTATACACAAGAGCACGGAGTCACCTAGTGCAG”, the binding signal rises from 8150 fluorescence intensity (a.u.) to 8190 fluorescence intensity (a.u.).

First: GTTGCTTGCCTACAATTCTCAGCCAATAACCACATCTCTGCGGAGTCACCTAGTGCAG
Second: CGCCACCAAACCCCGAGAACAAGAAAGCTATATACCATCTCGGAGTCACCTAGTGCAG
The binding signal of the first is lower: 8560 fluorescence intensity (a.u.) for the first, 8860 fluorescence intensity (a.u.) for the second.

First: AATAATTTTGTAATCGGTAGTTGTTTCCTTTTACAAACTCCGGAGTCACCTAGTGCAG
Second: GATCCGTTCCGTTCGTCCTTTGATCCTTTTCTATCTCTCCCGGAGTCACCTAGTGCAG
The binding signal of the first is lower: 8600 fluorescence intensity (a.u.) for the first, 9940 fluorescence intensity (a.u.) for the second.

Compared with “CGGGTGGATGTTGGGGATGATGCCGGTGTAGTTCATATAGCGGAGTCACCTAGTGCAG”, “CCATCGCCCTGACCTCATTCACCATGTTAGTGCAGCAACACGGAGTCACCTAGTGCAG” is lower in binding signal: 9900 fluorescence intensity (a.u.) for the first, 8050 fluorescence intensity (a.u.) for the second.

Compared with “GTGGGAGAGGCCGGCCGAGGGGAGGAGAGGGGAGGGGTGCCGGAGTCACCTAGTGCAG”, “GGGTACGACGCGCCGCGCGTCCGCTTTCCGATTCAGTTTTCGGAGTCACCTAGTGCAG” is lower in binding signal: 10700 fluorescence intensity (a.u.) for the first, 9520 fluorescence intensity (a.u.) for the second.

First: TTAGCTCTTGTATACATTTGATCATCCTCTGTGGAGAAAACGGAGTCACCTAGTGCAG
Second: TTTATGGCATGGTTCTCGGTTGACTAACTGGGCCGGCATTCGGAGTCACCTAGTGCAG
The binding signal of the first is lower: 8400 fluorescence intensity (a.u.) for the first, 8940 fluorescence intensity (a.u.) for the second.

Compared with “GCTATTATACCAGCTCTTATTTCATTTCATGTGCACGTTTCGGAGTCACCTAGTGCAG”, “ATGTAATCTCTCCCGGCCCCACCTAATTTTTTCTGATGCTCGGAGTCACCTAGTGCAG” is lower in binding signal: 13800 fluorescence intensity (a.u.) for the first, 8060 fluorescence intensity (a.u.) for the second.

Compared with “CTCTCTCTCTCTACCGTCTCGTCTCGCTTGCGTCGCGAGACGGAGTCACCTAGTGCAG”, “GTTTGTGGTGATTTTGTTGATGAGTACTTCCCAGCCTTGACGGAGTCACCTAGTGCAG” is higher in binding signal: 8210 fluorescence intensity (a.u.) for the first, 9830 fluorescence intensity (a.u.) for the second.

First: CATGTTATTGAACAACCACTATATGTTTCTGAGTTGTGATCGGAGTCACCTAGTGCAG
Second: GCATGTGTTCGTTATGTGTGGTTGGAGATTTTCTCCCACACGGAGTCACCTAGTGCAG
The binding signal of the first is higher: 8620 fluorescence intensity (a.u.) for the first, 8470 fluorescence intensity (a.u.) for the second.

First: AGAGTAACCCATCCGACCCTGTTTAATATCACTCCTTTGACGGAGTCACCTAGTGCAG
Second: CTGTTGACTATCCATGCCATTTTTACCGATTAGTCTATCTCGGAGTCACCTAGTGCAG
The binding signal of the first is lower: 8220 fluorescence intensity (a.u.) for the first, 13800 fluorescence intensity (a.u.) for the second.

First: GGGCCTCGCCCACTTGTTCCTACGCCCCTTTCCGCGCGAGCGGAGTCACCTAGTGCAG
Second: CAGTTTTGTTCTTTGTGATAACTCCATGTCTCAATCTTCACGGAGTCACCTAGTGCAG
The binding signal of the first is lower: 8170 fluorescence intensity (a.u.) for the first, 10500 fluorescence intensity (a.u.) for the second.

First: CTTCTACCGCTACATCGTCTGCTCACCTTGGAGAAGTTTCCGGAGTCACCTAGTGCAG
Second: CGCTGCCTCTTCGCTCGTCTCCGTCGAGTCCGTCACGCAGCGGAGTCACCTAGTGCAG
The binding signal of the first is higher: 8890 fluorescence intensity (a.u.) for the first, 8410 fluorescence intensity (a.u.) for the second.

First: AATACATTTTACCTCGATTGTTATTAGCATATTTTTTTTGCGGAGTCACCTAGTGCAG
Second: GCCGTATTCTCTCTTTACTCCCGGTTGGTGTTACCAACCGCGGAGTCACCTAGTGCAG
The binding signal of the first is lower: 8890 fluorescence intensity (a.u.) for the first, 9980 fluorescence intensity (a.u.) for the second.

Going from “TGTTTTTTTTTTGTAAGTTTAGTGGCATTCACATCCCATTCGGAGTCACCTAGTGCAG” to “CGCTGCGGGGAGTCGGCGCTTCGTCGGAGGCGGCGGGGCGCGGAGTCACCTAGTGCAG”, the binding signal rises from 8270 fluorescence intensity (a.u.) to 9420 fluorescence intensity (a.u.).

First: ACCTAAATTAGTAGAACGAATCTTTCCTTTTCTCTCTTTTCGGAGTCACCTAGTGCAG
Second: ACAAATTATTAATGGTTTTGTTTTCCGAAATGTTTTTTATCGGAGTCACCTAGTGCAG
The binding signal of the first is lower: 8280 fluorescence intensity (a.u.) for the first, 8440 fluorescence intensity (a.u.) for the second.

Compared with “AATGTTTGACCATTCGTCTTATTCAAAAAATTTATGTAATCGGAGTCACCTAGTGCAG”, “ACTACTATGCATTATTGCAACCGCCACCTCTTTTCATGTTCGGAGTCACCTAGTGCAG” is lower in binding signal: 9900 fluorescence intensity (a.u.) for the first, 9040 fluorescence intensity (a.u.) for the second.

Compared with “GCACTGTTTTGTAAGTTGGGTGATGAGTTATACCCGGTTTCGGAGTCACCTAGTGCAG”, “TCTTACATATTTGACCATTCGTCTTATCCAAAAATTTTATCGGAGTCACCTAGTGCAG” is higher in binding signal: 8090 fluorescence intensity (a.u.) for the first, 8590 fluorescence intensity (a.u.) for the second.

Compared with “TCTCCCCAACTTCCACCGCTAATTTCCGCCGCTGGCTTCGCGGAGTCACCTAGTGCAG”, “GCTTACCATGAGAATAGGTTTATGGTCCTCTAGTTTTTCACGGAGTCACCTAGTGCAG” is higher in binding signal: 8080 fluorescence intensity (a.u.) for the first, 8310 fluorescence intensity (a.u.) for the second.

Going from “AGTACTTGAGTTGAGACATTGTTATTCTTTTATTCCCTTTCGGAGTCACCTAGTGCAG” to “CATTCCCAGCTGCTCCATGCTGCTGCCGCCCTCTCGTCCTCGGAGTCACCTAGTGCAG”, the binding signal falls from 9160 fluorescence intensity (a.u.) to 8370 fluorescence intensity (a.u.).

Compared with “GGGATTTGGGAAGAAAGGGAGGTATACAGTGGAGAGATAGCGGAGTCACCTAGTGCAG”, “CCTAGGTGCTCATTCCACCGCCATCGCCTCCGGCGAACTCCGGAGTCACCTAGTGCAG” is lower in binding signal: 8690 fluorescence intensity (a.u.) for the first, 8050 fluorescence intensity (a.u.) for the second.
